Measured values as given in patent publication US20100172835A1 (BURNHAM INSTITUTE FOR MEDICAL RESEARCH, published 2010).
These are yes or no findings as the source states them, for the method shown. Binding seen in cells or lysates may run through a third protein. A yes stands for co-enrichment or nearness to the bait. Other partners may have been found.

Biological target: T1, gC1qR/p32 from tumor cell extracts (human, UniProt Q07021 74-282)
T1 construct: mature; From xenograft extracts an additional 75 kD band was also identified as gC1qR/p32; also called gC1q/p32 receptor; p32/p33/gC1qR/HABP1
T1 sequence (looked up): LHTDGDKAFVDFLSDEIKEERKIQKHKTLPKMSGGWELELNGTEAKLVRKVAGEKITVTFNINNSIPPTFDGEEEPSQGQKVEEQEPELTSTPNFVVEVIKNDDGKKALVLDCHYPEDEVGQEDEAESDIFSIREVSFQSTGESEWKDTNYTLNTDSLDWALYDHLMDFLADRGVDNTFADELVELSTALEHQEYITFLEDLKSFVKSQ
Test: pull-down with biotinylated peptide from MDA-MB-435 cell and xenograft extracts; silver stain, mass spectrometry, immunoblot

- binding: binds
Binder: CGNKRTRGC (biotinylated; cyclic peptide with a disulfide bond) [biotinylated Lyp-1 peptide]
